One data set can be described thus: Analysis of banned drugs in phosphate buffer using PTFE AF2400/HLB fiber and LC-MS/MS.
Conditions: not given
As for 6-Acetylmorphine, the LOQ turned out to be 1.0 ng/mL. The same measure, in the same setting: under `CC(N)Cc1ccccc1` (stereo not drawn) [Amphetamine] stands 0.5 ng/mL; under `CC(C)(C)NCC(O)c1cc(Cl)c(N)c(Cl)c1` (stereo not drawn) [Clenbuterol], 1.0 ng/mL. Same read-out and setting: next, `COc1ccc2c3c1O[C@H]1[C@@H](O)C=C[C@H]4[C@@H](C2)N(C)CC[C@@]341` [Codeine]: 1.0 ng/mL. On to `CC(=O)Oc1ccc2c3c1O[C@H]1[C@@H](OC(C)=O)C=C[C@H]4[C@@H](C2)N(C)CC[C@@]341` [Heroin], for which the LOQ came out at 0.5 ng/mL. On the same count and under the same terms, next, `CN[C@@H](C)Cc1ccccc1` [Methamphetamine]: 5.0 ng/mL.

Still in this data set, the particulars now being: extraction time 30 min, desorption time 30 min; phosphate buffer.
For the molecule `CCCCCc1cc(O)c2c(c1)OC(C)(C)[C@@H]1CCC(C(=O)O)=C[C@@H]21` [11-nor-9-carboxy-D-THC], the LOQ was 0.5 ng/mL. As to `CC(C)NCC(O)COc1ccc(COCCOC(C)C)cc1` (stereo not drawn) [Bisoprolol], the LOQ is given as 1.0 ng/mL. The same measure, in the same setting: next, `C=C1C[C@@H]2[C@H](CC[C@]3(C)C(=O)CC[C@@H]23)[C@@]2(C)C=CC(=O)C=C12` [Exemestane]: 1.0 ng/mL.
